From publication doi:10.1101/2021.10.14.464392
No constants are given. Whether binding was seen depends on the method and setting. In cells and extracts the contact can be indirect. A yes stands for co-enrichment or nearness to the bait. Other partners may have been found. Where a sequence is shown, tags or fusion partners need not be part of it.

Amino acid sequences for entries named in this document (tags omitted).
UniProt Q9ULH0: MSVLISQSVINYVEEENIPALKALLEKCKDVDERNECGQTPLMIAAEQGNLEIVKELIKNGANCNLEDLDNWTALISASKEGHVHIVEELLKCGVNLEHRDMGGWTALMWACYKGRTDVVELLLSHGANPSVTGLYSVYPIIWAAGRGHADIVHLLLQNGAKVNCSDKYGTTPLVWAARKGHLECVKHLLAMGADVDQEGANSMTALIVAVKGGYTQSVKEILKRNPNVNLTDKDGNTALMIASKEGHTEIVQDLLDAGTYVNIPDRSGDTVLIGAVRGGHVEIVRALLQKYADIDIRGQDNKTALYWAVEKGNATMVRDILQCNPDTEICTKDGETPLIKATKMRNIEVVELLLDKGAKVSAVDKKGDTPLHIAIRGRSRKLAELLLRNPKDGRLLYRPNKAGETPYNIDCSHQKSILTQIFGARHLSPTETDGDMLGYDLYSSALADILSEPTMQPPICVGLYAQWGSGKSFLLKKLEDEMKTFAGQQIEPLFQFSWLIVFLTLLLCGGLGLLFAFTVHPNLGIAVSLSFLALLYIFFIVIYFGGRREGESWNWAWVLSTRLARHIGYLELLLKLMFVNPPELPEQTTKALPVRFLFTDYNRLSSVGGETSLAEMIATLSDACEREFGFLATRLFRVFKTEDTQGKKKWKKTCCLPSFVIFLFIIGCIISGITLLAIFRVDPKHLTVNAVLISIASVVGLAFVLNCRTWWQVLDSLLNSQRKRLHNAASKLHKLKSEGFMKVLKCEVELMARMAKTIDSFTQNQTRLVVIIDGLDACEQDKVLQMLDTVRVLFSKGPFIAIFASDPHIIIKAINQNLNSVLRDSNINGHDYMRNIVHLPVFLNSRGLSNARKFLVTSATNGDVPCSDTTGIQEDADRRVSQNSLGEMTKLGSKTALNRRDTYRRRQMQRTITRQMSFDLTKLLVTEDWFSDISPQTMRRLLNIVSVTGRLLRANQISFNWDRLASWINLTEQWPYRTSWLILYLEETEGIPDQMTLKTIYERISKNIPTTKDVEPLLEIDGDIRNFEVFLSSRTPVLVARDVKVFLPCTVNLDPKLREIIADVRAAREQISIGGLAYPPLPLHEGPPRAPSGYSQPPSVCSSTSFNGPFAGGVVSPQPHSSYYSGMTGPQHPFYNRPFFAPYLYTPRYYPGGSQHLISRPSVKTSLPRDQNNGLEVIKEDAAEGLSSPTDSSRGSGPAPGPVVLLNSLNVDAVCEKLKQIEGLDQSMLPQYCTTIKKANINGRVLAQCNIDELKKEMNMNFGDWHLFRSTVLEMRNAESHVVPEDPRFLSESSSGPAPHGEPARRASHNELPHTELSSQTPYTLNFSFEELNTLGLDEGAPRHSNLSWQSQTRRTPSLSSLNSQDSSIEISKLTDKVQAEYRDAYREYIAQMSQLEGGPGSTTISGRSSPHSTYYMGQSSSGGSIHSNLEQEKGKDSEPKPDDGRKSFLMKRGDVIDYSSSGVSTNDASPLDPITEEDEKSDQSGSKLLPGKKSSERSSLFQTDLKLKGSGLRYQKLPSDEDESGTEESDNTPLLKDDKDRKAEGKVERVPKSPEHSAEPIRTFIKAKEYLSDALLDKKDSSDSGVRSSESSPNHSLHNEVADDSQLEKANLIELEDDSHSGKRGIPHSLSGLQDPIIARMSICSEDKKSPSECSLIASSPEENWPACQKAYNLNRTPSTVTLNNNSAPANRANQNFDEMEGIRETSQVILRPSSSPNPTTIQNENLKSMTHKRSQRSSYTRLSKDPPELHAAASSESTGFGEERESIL
UniProt P46939: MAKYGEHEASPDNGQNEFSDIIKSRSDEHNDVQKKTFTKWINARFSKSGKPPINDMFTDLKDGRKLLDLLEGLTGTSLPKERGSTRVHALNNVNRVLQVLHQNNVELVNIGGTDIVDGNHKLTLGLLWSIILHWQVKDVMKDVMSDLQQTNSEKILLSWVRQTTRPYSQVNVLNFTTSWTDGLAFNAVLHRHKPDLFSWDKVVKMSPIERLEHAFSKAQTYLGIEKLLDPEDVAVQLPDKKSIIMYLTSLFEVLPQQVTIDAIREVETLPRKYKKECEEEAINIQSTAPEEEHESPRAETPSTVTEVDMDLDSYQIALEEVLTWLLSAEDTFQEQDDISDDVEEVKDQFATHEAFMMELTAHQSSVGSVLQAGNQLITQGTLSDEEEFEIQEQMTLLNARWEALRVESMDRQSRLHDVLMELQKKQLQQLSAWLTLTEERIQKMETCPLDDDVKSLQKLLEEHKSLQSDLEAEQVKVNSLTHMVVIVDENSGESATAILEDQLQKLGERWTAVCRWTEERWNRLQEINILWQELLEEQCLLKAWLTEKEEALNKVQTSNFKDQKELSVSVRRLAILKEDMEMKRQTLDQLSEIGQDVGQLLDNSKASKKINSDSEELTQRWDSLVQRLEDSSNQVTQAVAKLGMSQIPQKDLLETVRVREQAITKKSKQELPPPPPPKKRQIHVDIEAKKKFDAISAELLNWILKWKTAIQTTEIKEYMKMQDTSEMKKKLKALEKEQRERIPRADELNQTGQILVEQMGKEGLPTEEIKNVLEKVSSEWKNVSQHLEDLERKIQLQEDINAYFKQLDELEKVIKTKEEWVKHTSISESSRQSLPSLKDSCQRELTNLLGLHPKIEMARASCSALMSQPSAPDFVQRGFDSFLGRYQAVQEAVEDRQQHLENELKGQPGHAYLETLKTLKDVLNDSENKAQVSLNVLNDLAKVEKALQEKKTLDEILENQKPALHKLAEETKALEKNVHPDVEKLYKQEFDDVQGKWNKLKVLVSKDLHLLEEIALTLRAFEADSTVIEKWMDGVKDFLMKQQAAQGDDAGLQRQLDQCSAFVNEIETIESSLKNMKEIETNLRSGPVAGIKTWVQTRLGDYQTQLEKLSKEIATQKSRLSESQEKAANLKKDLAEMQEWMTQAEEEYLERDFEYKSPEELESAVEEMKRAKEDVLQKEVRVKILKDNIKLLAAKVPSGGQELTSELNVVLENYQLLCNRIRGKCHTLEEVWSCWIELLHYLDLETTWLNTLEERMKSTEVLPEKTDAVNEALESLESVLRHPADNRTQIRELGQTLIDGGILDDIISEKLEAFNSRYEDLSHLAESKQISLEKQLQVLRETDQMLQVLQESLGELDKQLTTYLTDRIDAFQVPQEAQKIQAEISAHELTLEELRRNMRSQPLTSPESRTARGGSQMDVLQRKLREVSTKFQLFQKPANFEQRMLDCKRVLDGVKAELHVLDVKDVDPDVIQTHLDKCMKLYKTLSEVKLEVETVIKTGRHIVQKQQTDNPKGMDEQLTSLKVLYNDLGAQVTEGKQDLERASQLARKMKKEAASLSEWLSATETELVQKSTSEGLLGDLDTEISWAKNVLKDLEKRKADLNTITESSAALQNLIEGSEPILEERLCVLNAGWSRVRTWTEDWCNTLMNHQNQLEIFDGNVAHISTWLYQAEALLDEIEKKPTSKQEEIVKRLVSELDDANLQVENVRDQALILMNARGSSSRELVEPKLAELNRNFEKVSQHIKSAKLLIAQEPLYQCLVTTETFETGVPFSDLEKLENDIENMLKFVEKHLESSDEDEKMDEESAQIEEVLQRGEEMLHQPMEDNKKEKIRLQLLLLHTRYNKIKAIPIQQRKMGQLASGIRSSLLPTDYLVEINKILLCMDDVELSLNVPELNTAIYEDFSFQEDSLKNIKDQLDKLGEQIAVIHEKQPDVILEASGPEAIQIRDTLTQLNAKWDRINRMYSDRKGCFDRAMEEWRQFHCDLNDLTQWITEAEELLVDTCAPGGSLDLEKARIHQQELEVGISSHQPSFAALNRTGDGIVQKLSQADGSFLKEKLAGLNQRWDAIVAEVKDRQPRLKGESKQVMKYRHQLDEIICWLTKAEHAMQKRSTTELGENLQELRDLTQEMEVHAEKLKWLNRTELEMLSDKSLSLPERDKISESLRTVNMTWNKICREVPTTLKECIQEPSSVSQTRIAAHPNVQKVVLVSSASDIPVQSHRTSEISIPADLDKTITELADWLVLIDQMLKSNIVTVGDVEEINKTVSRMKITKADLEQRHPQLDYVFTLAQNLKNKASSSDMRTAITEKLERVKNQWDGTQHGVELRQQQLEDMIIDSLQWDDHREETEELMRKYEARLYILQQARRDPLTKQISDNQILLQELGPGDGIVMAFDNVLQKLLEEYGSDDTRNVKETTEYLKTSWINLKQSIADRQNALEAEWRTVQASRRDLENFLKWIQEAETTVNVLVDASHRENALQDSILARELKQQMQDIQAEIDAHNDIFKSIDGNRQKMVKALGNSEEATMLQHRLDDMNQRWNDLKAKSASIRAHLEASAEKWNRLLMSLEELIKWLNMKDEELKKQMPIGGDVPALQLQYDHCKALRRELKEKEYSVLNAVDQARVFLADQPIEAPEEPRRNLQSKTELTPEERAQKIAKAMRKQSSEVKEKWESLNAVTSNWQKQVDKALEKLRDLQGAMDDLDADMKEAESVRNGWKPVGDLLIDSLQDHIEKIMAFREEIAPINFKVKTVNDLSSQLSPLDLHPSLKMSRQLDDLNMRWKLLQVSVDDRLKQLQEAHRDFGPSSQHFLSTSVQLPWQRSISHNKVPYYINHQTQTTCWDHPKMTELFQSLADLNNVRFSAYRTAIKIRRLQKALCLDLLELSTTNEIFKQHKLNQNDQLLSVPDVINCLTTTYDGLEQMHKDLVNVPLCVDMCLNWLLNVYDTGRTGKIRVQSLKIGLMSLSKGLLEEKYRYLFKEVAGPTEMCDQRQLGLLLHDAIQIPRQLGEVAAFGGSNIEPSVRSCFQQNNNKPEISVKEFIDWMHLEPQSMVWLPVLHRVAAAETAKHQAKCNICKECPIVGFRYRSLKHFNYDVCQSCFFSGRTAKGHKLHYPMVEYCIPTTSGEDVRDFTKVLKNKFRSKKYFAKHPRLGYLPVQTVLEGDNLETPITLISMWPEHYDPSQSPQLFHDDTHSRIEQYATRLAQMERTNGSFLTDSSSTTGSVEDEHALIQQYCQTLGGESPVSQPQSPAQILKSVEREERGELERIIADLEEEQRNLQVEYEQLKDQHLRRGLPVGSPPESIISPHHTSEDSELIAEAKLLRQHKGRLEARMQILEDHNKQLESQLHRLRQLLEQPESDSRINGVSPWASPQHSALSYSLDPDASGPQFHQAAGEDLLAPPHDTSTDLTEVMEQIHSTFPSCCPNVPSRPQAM

T1: BirAGFP-KIF13B Tail 2 (UniProt Q9NQT8)
T1 sequence: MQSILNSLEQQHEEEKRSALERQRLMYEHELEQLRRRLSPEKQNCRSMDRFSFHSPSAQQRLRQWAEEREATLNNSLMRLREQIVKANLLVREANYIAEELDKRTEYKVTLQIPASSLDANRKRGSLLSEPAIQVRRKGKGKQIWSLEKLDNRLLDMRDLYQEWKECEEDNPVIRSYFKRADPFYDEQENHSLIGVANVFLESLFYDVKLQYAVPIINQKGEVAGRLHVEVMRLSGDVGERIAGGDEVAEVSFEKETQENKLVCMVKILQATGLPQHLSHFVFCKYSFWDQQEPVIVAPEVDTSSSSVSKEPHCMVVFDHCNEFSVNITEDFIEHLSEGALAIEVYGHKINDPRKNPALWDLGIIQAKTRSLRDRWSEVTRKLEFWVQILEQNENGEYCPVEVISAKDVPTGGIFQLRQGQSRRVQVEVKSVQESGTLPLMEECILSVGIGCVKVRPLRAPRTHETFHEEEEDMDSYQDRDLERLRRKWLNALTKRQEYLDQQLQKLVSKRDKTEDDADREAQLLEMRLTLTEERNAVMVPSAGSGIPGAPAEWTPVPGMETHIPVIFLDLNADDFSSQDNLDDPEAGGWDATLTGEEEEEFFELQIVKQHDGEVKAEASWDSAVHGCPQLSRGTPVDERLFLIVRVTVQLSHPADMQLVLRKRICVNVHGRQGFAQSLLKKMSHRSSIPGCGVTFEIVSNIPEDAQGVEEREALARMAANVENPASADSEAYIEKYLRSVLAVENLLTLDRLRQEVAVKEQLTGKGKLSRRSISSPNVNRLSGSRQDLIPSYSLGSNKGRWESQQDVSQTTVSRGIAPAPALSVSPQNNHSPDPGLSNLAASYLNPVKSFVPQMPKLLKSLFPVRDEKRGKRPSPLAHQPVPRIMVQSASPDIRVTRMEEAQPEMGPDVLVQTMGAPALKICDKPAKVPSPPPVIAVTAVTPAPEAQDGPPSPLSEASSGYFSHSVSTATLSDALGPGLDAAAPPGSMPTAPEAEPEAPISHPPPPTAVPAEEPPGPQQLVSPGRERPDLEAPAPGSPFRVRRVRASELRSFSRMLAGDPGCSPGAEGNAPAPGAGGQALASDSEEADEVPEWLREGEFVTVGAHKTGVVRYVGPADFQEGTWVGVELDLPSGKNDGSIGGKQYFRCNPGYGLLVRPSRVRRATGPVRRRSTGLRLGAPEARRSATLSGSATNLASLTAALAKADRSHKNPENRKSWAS


Target: T1, BirAGFP-KIF13B Tail 2
Experiment: affinity purification with mass spectrometry

Row | Molecule | binding
1 | angiomotin (AMOT) (from UniProt Q4VCS5-2) | binds
2 | kinase D-interacting substrate of 220 kDa (KIDINS220) (from UniProt Q9ULH0 1-1771) | binds
3 | syntrophin (human (endogenous in HEK293)) | binds
4 | utrophin (from UniProt P46939 1-3433) | binds
5 | MPP7 (protein, UniProt Q5T2T1 1-576) MPALSTGSGSDTGLYELLAALPAQLQPHVDSQEDLTFLWDMFGEKSLHSLVKIHEKLHYYEKQSPVPILHGAAALADDLAEELQNKPLNSEIRELLKLLSKPNVKALLSVHDTVAQKNYDPVLPPMPEDIDDEEDSVKIIRLVKNREPLGATIKKDEQTGAIIVARIMRGGAADRSGLIHVGDELREVNGIPVEDKRPEEIIQILAQSQGAITFKIIPGSKEETPSKEGKMFIKALFDYNPNEDKAIPCKEAGLSFKKGDILQIMSQDDATWWQAKHEADANPRAGLIPSKHFQERRLALRRPEILVQPLKVSNRKSSGFRKSFRLSRKDKKTNKSMYECKKSDQYDTADVPTYEEVTPYRRQTNEKYRLVVLVGPVGVGLNELKRKLLISDTQHYGVTVPHTTRARRSQESDGVEYIFISKHLFETDVQNNKFIEYGEYKNNYYGTSIDSVRSVLAKNKVCLLDVQPHTVKHLRTLEFKPYVIFIKPPSIERLRETRKNAKIISSRDDQGAAKPFTEEDFQEMIKSAQIMESQYGHLFDKIIINDDLTVAFNELKTTFDKLETETHWVPVSWLHS | binds
6 | LIN7C (protein, UniProt Q9NUP9 1-197) MAALGEPVRLERDICRAIELLEKLQRSGEVPPQKLQALQRVLQSEFCNAVREVYEHVYETVDISSSPEVRANATAKATVAAFAASEGHSHPRVVELPKTEEGLGFNIMGGKEQNSPIYISRIIPGGIADRHGGLKRGDQLLSVNGVSVEGEHHEKAVELLKAAQGKVKLVVRYTPKVLEEMESRFEKMRSAKRRQQT | binds
